Experimental findings from publication PMC2816667 are described below.

The exact form of at least one protein or probe is not confirmed.

The subject of one series is GST-EWS-Oct-4B (human). Description: EMSA. The following applies: 10 mM Tris-HCl pH 8.0, 40 mM KCl, 6% glycerol, 1 mM DTT, 0.05% NP-40, 10 ng/ul poly(dI-dC), 30 min at 4 C; 4% PAGE in 0.5x TBE at 4 C; protein 0.15-1.35 ug; recombinant protein; protein details: GST; label: 32P 5' end label. On the technique in general: A gel shift assay detects complexes by their altered migration in electrophoresis.

The next series concerns GST-EWS-Oct-4 (human). Briefly: EMSA. As to conditions: 10 mM Tris-HCl pH 8.0, 40 mM KCl, 6% glycerol, 1 mM DTT, 0.05% NP-40, 10 ng/ul poly(dI-dC), 30 min at 4 C; 4% PAGE in 0.5x TBE at 4 C; protein 0.15-1.35 ug; recombinant protein; protein details: GST; label: 32P 5' end label.

For “GGCACTTCACTAGCATAACAATGAGGGCTC (double strand) [Oct-4 probe]”, the binding result in the series with GST-EWS-Oct-4B (human) and with GST-EWS-Oct-4 (human) was “binds” throughout.
